A short description of the assay: qHTS Assay for Modulators of Lamin A Splicing. The note with it: HeLa LMNA splicing GFP/RFP minigene ratio, 48 h. The gist of the method: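 Read-out is the ratio of GFP to DsRed2 object intensity, acquired by 488 nm laser-scanning cytometry on HeLa lamin A-EGFP minigene reporter cells. Compound incubation 48 hrs at 37 °C in Opti-MEM with 2% FBS; DMSO 0.5% final.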

The mark [1] stands for this setting: measured here: GFP splicing reporter channel.
Setting [2] is: measured here: RFP viability control channel.

This is one part of the list. These are further read-outs of the screen, such as a control signal, another cell line or another target. No call is given for them. Most of these compounds were active or inconclusive in the main read-out, so they are no random draw. The note in brackets gives the kind of curve behind each potency; many fits are weak.

For `CCOC(=O)c1cc(-c2ccccc2)n(CCC(=O)N2CCN(c3ccc(OC)cc3)CC2)c1C`, the AC50 by setting is: under setting [1], 35.5 µM [rising, single point]; under setting [2], 35.5 µM [rising, single point].

Turning to `CCCCN1CCc2c1nc1ccc(Br)cc1c2N`, under setting [2], the concentration at half-maximal activity (AC50) is 10 µM [rising, partial curve, poor fit].

Turning to `Cc1ccccc1NC(=O)/C(C#N)=C/c1ccsc1`, the half-maximal activity concentration (AC50) under setting [2] is 22.4 µM [rising, single point].

Turning to `CCC(C)n1ncn(-c2ccc(N3CCN(c4ccc(O)cc4)CC3)cc2)c1=O` (centres undefined), the AC50 is, setting by setting: under setting [1], 1 µM [rising, full curve, poor fit]; under setting [2], 1.41 µM [rising, full curve].

As to `Cc1ccc(NS(=O)(=O)c2cccc(C(=O)Nc3cc(C)on3)c2)cc1`, the half-maximal activity concentration (AC50) by setting is: under setting [1], 7.08 µM [rising, partial curve, poor fit]; under setting [2], 12.6 µM [rising, partial curve].

With `C#C[C@]1(O)CCC2C3CCC4=CC(=O)CCC4C3CC[C@@]21C` (some centres undefined), the AC50 under setting [1] was 3.16 µM [rising, full curve] and the half-maximal activity concentration (AC50) under setting [2] is 2.82 µM [rising, partial curve].

On to `CCc1ccc(OCC(=O)N/N=C(\C)c2ccc3c(c2)OCCO3)cc1`, for which the AC50 under setting [2] is 1.26 µM [rising, partial curve].

On to `CCc1nc(SCC(=O)N2c3ccccc3CC2C)c2c(C)c(C)sc2n1` (centres undefined), for which, under setting [1], the AC50 was 8.91 µM [falling, partial curve].

In the case of `CCOc1ccc(C(=O)OCc2cc(=O)n3nc(C4CCCCC4)sc3n2)cc1`, the AC50 is, setting by setting: under setting [1], 35.5 µM [falling, partial curve, poor fit]; under setting [2], 25.1 µM [falling, partial curve, poor fit].

With `CN1CCN(C2=C(Cl)C(=O)N(C3CCCCC3)C2=O)CC1`, the half-maximal activity concentration (AC50) was 15.8 µM [rising, partial curve] under setting [1] and 12.6 µM [rising, partial curve] under setting [2].

Turning to `CC(C)CC(c1nnnn1Cc1ccco1)N1CCN(c2cccc(Cl)c2)CC1` (centres undefined), the half-maximal activity concentration (AC50) was 0.00891 µM [rising, full curve, poor fit] under setting [1] and 22.4 µM [rising, single point] under setting [2].

For `CC(C)Oc1ccc(C(=O)/C(=C\c2cccs2)c2nc3ccccc3o2)cc1`, the concentration at half-maximal activity (AC50) reads like this: under setting [1], 31.6 µM [rising, single point]; under setting [2], 25.1 µM [rising, single point].

As to `Cc1ccc(CSCC(=O)N2CCN(Cc3ccc4c(c3)OCO4)CC2)cc1`, the AC50 under setting [2] was 25.1 µM [rising, single point].

`O=C(/C=C/c1ccc2c(c1)OCO2)Nc1nc2ccccc2s1`: the AC50 under setting [2] is 6.31 µM [rising, full curve, poor fit].

As for `Cn1c(CN2CCCCC2)nc2cc(NC(=O)c3cccc(Br)c3)ccc21`, the AC50 under setting [2] was 14.1 µM [rising, partial curve].

For the compound `CC(=O)/C(=N\Nc1ccccc1)Sc1nncn1C`, the AC50 under setting [1] is 0.0447 µM [rising, full curve, poor fit].

For the compound `CCCCC(=O)Nc1nc2c(OC)cc([N+](=O)[O-])cc2s1`, the AC50 under setting [1] was 0.01 µM [falling, full curve, poor fit].

For the compound `CCC(Oc1ccccc1)C(=O)Nc1ccc(O)c(-c2nc3cc(C)ccc3o2)c1` (centres undefined), the AC50 under setting [1] is 6.31 µM [rising, partial curve, poor fit].

As to `CC(C)(C)c1csc(NC(=O)c2cccs2)n1`, under setting [2], the half-maximal activity concentration (AC50) is 12.6 µM [rising, single point].

Consider `Cc1cc(C)nc(N/N=C/c2ccccc2OCc2cccc(Br)c2)n1`, for which the AC50 was 35.5 µM [rising, single point] under setting [1] and 35.5 µM [rising, single point] under setting [2].

As to `CCN=c1scc(-c2ccc(F)cc2)n1/N=C/c1ccccn1`, under setting [2], the half-maximal activity concentration (AC50) is 6.31 µM [rising, single point].

Consider `CCCCCCCN1N=C(C)C(C(=O)c2ccccc2)C1=O` (centres undefined), for which the AC50 under setting [2] was 35.5 µM [rising, single point].

For the compound `CCCCCN1CSC(=S)N(Cc2ccccc2)C1`, the concentration at half-maximal activity (AC50) under setting [1] was 35.5 µM [rising, single point] and the AC50 under setting [2] is 35.5 µM [rising, single point].

In the case of `CCOc1ccccc1Oc1cn[nH]c1-c1ccc(OC)cc1O`, the concentration at half-maximal activity (AC50) under setting [2] is 35.5 µM [rising, single point].

Turning to `O=C1O/C(=C/Br)CCC1c1cccc2ccccc12` (centres undefined), the AC50 under setting [1] was 2.82 µM [falling, full curve] and the AC50 under setting [2] was 3.55 µM [falling, full curve].

With `COC(=O)c1cnn(-c2ccc(C(=O)Nc3cccc(C(C)=O)c3)cc2)c1N`, the AC50 under setting [2] is 0.112 µM [falling, full curve].

As for `O=C1c2oc3ccccc3c(=O)c2C(c2ccc(Br)cc2)N1c1ccccn1` (centres undefined), the AC50 under setting [2] is 0.0316 µM [falling, full curve, poor fit].

Take `CC1=C/C(=N\OS(=O)(=O)c2ccccc2)C(C)=CC1=O`: the AC50 by setting is: under setting [1], 35.5 µM [falling, single point]; under setting [2], 35.5 µM [falling, single point].

As for `CN1CCN(C(=S)Nc2ccc(Cl)c(Cl)c2)CC1`, the concentration at half-maximal activity (AC50) under setting [2] is 17.8 µM [rising, partial curve].

For the compound `Cc1ccc(C)c(OCC(=O)Nc2c[nH]c(=O)[nH]c2=O)c1`, the AC50 was 0.0562 µM [falling, full curve] under setting [1] and 0.562 µM [falling, full curve] under setting [2].

Take `CN1CCCN(c2ccc([N+](=O)[O-])cc2)CC1`: the AC50 under setting [2] was 5.62 µM [falling, full curve, poor fit].

For `Cc1ccc(NC(=O)Cn2nc(C)c3nn(-c4ccc(Cl)cc4)c(C)c3c2=O)cc1C`, the AC50 under setting [1] was 0.562 µM [rising, partial curve, poor fit] and the concentration at half-maximal activity (AC50) under setting [2] is 0.891 µM [rising, full curve, poor fit].

For the compound `S=C(NCCc1ccccc1)N1CCn2cccc2C1c1ccncc1` (centres undefined), under setting [1], the half-maximal activity concentration (AC50) was 8.91 µM [falling, partial curve, poor fit].

Consider `O=C(NCc1ccco1)c1cc2n(n1)C(C(F)(F)F)CC(c1ccc(Cl)c(Cl)c1)N2` (centres undefined), for which the AC50 by setting is: under setting [1], 20 µM [rising, partial curve, poor fit]; under setting [2], 12.6 µM [rising, partial curve].

On to `Cc1ccc(CNC(=O)C(=O)NCC2OCCN2S(=O)(=O)c2ccc3c(c2)OCCO3)cc1` (centres undefined), for which the AC50 is, setting by setting: under setting [1], 17.8 µM [rising, single point]; under setting [2], 22.4 µM [rising, single point].

Take `CC(=O)OCC(=O)[C@@]12OC3(CCCC3)OC1CC1C3CCC4=CC(=O)C=C[C@@]4(C)[C@]3(F)C(O)C[C@]12C` (some centres undefined): the AC50 by setting is: under setting [1], 0.562 µM [falling, partial curve]; under setting [2], 0.631 µM [falling, partial curve, poor fit].

As for `COc1ccc(CC(=O)Nc2cccc(C(=O)Nc3cccc(C)c3)c2)cc1`, the AC50 under setting [1] was 12.6 µM [falling, partial curve].

As for `COc1ccc(C(=O)OCn2nnc3ccccc3c2=O)cc1`, the AC50 under setting [1] is 0.01 µM [rising, full curve, poor fit].

On to `Cc1ccccc1CNC(=O)c1ccc(Cl)c([N+](=O)[O-])c1`, for which, under setting [1], the concentration at half-maximal activity (AC50) was 31.6 µM [rising, single point].

Consider `CCCC(=O)OCC(=O)NCc1ccc(Cl)cc1`, for which the AC50 under setting [1] was 0.00316 µM [falling, full curve, poor fit].

Regarding `COc1ccc(-c2noc(C3CCCN(C(=O)c4cccs4)C3)n2)cc1` (centres undefined), under setting [2], the concentration at half-maximal activity (AC50) is 12.6 µM [rising, single point].

For the compound `CN(c1ccccc1)S(=O)(=O)c1ccc(Cl)c(C(=O)Nc2nc3ccccc3[nH]2)c1`, under setting [2], the concentration at half-maximal activity (AC50) is 12.6 µM [rising, partial curve].

With `Cc1nc2ccccc2n1CCc1nc2c3ccccc3nc(SCc3cccc(F)c3)n2n1`, the half-maximal activity concentration (AC50) is, setting by setting: under setting [1], 0.794 µM [rising, full curve]; under setting [2], 1.12 µM [rising, full curve, poor fit].

Turning to `CCOc1ccc(N(CC(=O)Nc2cccc(N(C)S(C)(=O)=O)c2)S(=O)(=O)c2ccccc2)cc1`, the half-maximal activity concentration (AC50) under setting [2] was 12.6 µM [rising, partial curve, poor fit].

With `COc1ccccc1CNC(=O)CCCOc1cc(=O)n(C)c2ccccc12`, the AC50 under setting [2] was 35.5 µM [rising, single point].

Turning to `CCNc1ncc2nc(-c3ccc(Cl)cc3)c(=O)n(Cc3ccc(F)cc3)c2n1`, the AC50 is 22.4 µM [falling, single point] under setting [1] and 22.4 µM [falling, single point] under setting [2].

As for `COc1ccc(-n2c(C)cc(C(=O)CSc3ccc(NC(C)=O)cc3)c2C)cc1`, the AC50 under setting [1] is 20 µM [rising, single point] and the AC50 under setting [2] was 25.1 µM [rising, single point].

Consider `CC(O)COc1ccccc1` (centres undefined), for which the concentration at half-maximal activity (AC50) is, setting by setting: under setting [1], 35.5 µM [falling, single point]; under setting [2], 0.316 µM [falling, partial curve].

Regarding `c1ccc(-c2ccc(-c3cnc4n3CCCCC4)cc2)cc1`, under setting [2], the half-maximal activity concentration (AC50) is 8.91 µM [rising, partial curve].

As to `COc1ccc(Br)cc1CNC(=O)c1cc(=O)[nH]c2ccc(S(=O)(=O)N3CCCC3)cc12`, the AC50 was 3.55 µM [rising, partial curve, poor fit] under setting [1] and 3.16 µM [rising, partial curve] under setting [2].

Take `CCCCCCn1c(COc2ccccc2F)nnc1SCC(=O)N1c2ccccc2NC(=O)C1(C)C`: the AC50 under setting [1] is 35.5 µM [rising, single point] and the concentration at half-maximal activity (AC50) under setting [2] was 35.5 µM [rising, single point].

Turning to `COCCCNC(=S)Nc1ccc(CC(=O)O)cc1`, the AC50 is, setting by setting: under setting [1], 5.01 µM [falling, partial curve]; under setting [2], 5.62 µM [falling, partial curve, poor fit].

With `Cc1csc(NC(=O)CSc2nnc3c4ccccc4nc(C(C)(C)C)n23)n1`, the AC50 under setting [1] was 14.1 µM [falling, single point] and the AC50 under setting [2] was 10 µM [falling, single point].

On to `COCCNc1ncnc2ccc(-c3cccc(OC)c3)cc12`, for which the AC50 under setting [1] was 20 µM [falling, single point].

The record behind these values is PubChem BioAssay AID1487 (National Center for Advancing Translational Sciences (NCATS), 2009).
